# Measurements: the supplement of paper PMC8728848
# Some of the results follow.
# B1: Epa3to2 (Candida glabrata) (protein)
# chain: MGSSHHHHHHSSGLVPRGSHMKRELSSQNPFGYPIGCSPQDVAIIPGLTMELYSYPIVSGTPPNCYDASYVDPEYPRTGYLKRKMVGKSTGVTGNLNYKYSVEKACMVKYGNLPAGYNYNEPLTVSNFTMILYGYFKAQTTGLHTFFVNADDLLYINFGAGNAFDCCKREDSKTKLGEYVAYDIWHVDSSKNKVSLFLEKDLYYPIRMFFNNRDNNSSLDLSFSVNGATDQISDFSGYLYSVPDQPDTCPAHIGYDTTCR
# Assays:
# Test in all cases: glycan array binding signal (z-score within array); higher = stronger binding
# Conditions in all cases: glycan notation: IUPAC condensed, linker removed
# [1] = biological target: Neu5Ac(a2-3)Gal(b1-3)GalNAc
# Procedure, shortened: (§1)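 The binding signal is a Z-score computed within each array and averaged over linkers. Arrays of the same protein sequence at different concentrations or buffers were also averaged together. Data originate from 3228 arrays in the Consortium for Functional Glycomics database, kept only where the protein sequence was available.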
# [2] = biological target: Neu5Ac(a2-3)Gal(b1-3)GalNAc(b1-3)Gal(a1-4)Gal(b1-4)Glc
# Procedure, shortened: as §1
# [3] = biological target: Neu5Ac(a2-3)Gal(b1-3)GalNAc(b1-4)[Neu5Ac(a2-3)]Gal(b1-4)Glc
# Procedure, shortened: as §1
# [4] = biological target: Neu5Ac(a2-3)Gal(b1-3)GalNAc(b1-4)[Neu5Ac(a2-8)Neu5Ac(a2-3)]Gal(b1-4)Glc
# Procedure, shortened: as §1
# [5] = biological target: Neu5Ac(a2-3)Gal(b1-3)GalNAc6S
# Procedure, shortened: as §1
# [6] = biological target: Neu5Ac(a2-3)Gal(b1-3)GlcNAc
# Procedure, shortened: as §1
# [7] = biological target: Neu5Ac(a2-3)Gal(b1-3)GlcNAc(b1-2)Man
# Procedure, shortened: as §1
# [8] = biological target: Neu5Ac(a2-3)Gal(b1-3)GlcNAc(b1-2)Man(a1-3)[GlcNAc(b1-4)][Neu5Ac(a2-3)Gal(b1-3)GlcNAc(b1-2)Man(a1-6)]Man(b1-4)GlcNAc(b1-4)GlcNAc
# Procedure, shortened: as §1
# [9] = biological target: Neu5Ac(a2-3)Gal(b1-3)GlcNAc(b1-2)Man(a1-3)[Neu5Ac(a2-3)Gal(b1-3)GlcNAc(b1-2)Man(a1-6)]Man(b1-4)GlcNAc(b1-4)GlcNAc
# Procedure, shortened: as §1
# [10] = biological target: Neu5Ac(a2-3)Gal(b1-3)GlcNAc(b1-2)[Neu5Ac(a2-3)Gal(b1-3)GlcNAc(b1-4)]Man(a1-6)[Neu5Ac(a2-3)Gal(b1-3)GlcNAc(b1-2)Man(a1-3)]Man(b1-4)GlcNAc(b1-4)GlcNAc
# Procedure, shortened: as §1
# [11] = biological target: Neu5Ac(a2-3)Gal(b1-3)GlcNAc(b1-3)Gal(b1-3)GlcNAc
# Procedure, shortened: as §1
# [12] = biological target: Neu5Ac(a2-3)Gal(b1-3)GlcNAc(b1-3)Gal(b1-4)GlcNAc
# Procedure, shortened: as §1
# [13] = biological target: Neu5Ac(a2-3)Gal(b1-3)GlcNAc(b1-3)GalNAc
# Procedure, shortened: as §1
# [14] = biological target: Neu5Ac(a2-3)Gal(b1-3)GlcNAc(b1-4)Gal(b1-4)Glc
# Procedure, shortened: as §1
# [15] = biological target: Neu5Ac(a2-3)Gal(b1-3)GlcNAc(b1-6)GalNAc
# Procedure, shortened: as §1
# [16] = biological target: Neu5Ac(a2-3)Gal(b1-3)GlcNAc6S
# Procedure, shortened: as §1
# [17] = biological target: Neu5Ac(a2-3)Gal(b1-3)[Fuc(a1-4)]GlcNAc
# Procedure, shortened: as §1
# [18] = biological target: Neu5Ac(a2-3)Gal(b1-3)[Fuc(a1-4)]GlcNAc(b1-3)Gal(b1-3)[Fuc(a1-4)]GlcNAc
# Procedure, shortened: as §1
# [19] = biological target: Neu5Ac(a2-3)Gal(b1-3)[Fuc(a1-4)]GlcNAc(b1-3)Gal(b1-4)[Fuc(a1-3)]GlcNAc
# Procedure, shortened: as §1
# [20] = biological target: Neu5Ac(a2-3)Gal(b1-3)[GlcNAc(b1-6)]GalNAc
# Procedure, shortened: as §1
# [21] = biological target: Neu5Ac(a2-3)Gal(b1-3)[Neu5Ac(a2-6)]GalNAc
# Procedure, shortened: as §1
# [22] = biological target: Neu5Ac(a2-3)Gal(b1-3)[Neu5Ac(a2-6)]GlcNAc(b1-3)[Fuc(a1-3)[Gal(b1-4)]GlcNAc(b1-6)]Gal(b1-4)Glc
# Procedure, shortened: as §1
# [23] = biological target: Neu5Ac(a2-3)Gal(b1-3)]Neu5Ac(a2-3)Gal(b1-4)]GlcNAc
# Procedure, shortened: as §1
# Neu5Ac(a2-3)Gal(b1-4)Glc = biological target: Neu5Ac(a2-3)Gal(b1-4)Glc
# Procedure, shortened: as §1
# [24] = biological target: Neu5Ac(a2-3)Gal(b1-4)GlcNAc
# Procedure, shortened: as §1
# [25] = biological target: Neu5Ac(a2-3)Gal(b1-4)GlcNAc(b1-2)Man
# Procedure, shortened: as §1
# [26] = biological target: Neu5Ac(a2-3)Gal(b1-4)GlcNAc(b1-2)Man(a1-3)[GlcNAc(b1-4)][Neu5Ac(a2-3)Gal(b1-4)GlcNAc(b1-2)Man(a1-6)]Man(b1-4)GlcNAc(b1-4)GlcNAc
# Procedure, shortened: as §1
# [27] = biological target: Neu5Ac(a2-3)Gal(b1-4)GlcNAc(b1-2)Man(a1-3)[Neu5Ac(a2-3)Gal(b1-4)GlcNAc(b1-2)Man(a1-6)]Man(b1-4)GlcNAc(b1-4)GlcNAc
# Procedure, shortened: as §1
# [28] = biological target: Neu5Ac(a2-3)Gal(b1-4)GlcNAc(b1-2)Man(a1-3)[Neu5Ac(a2-3)Gal(b1-4)GlcNAc(b1-2)Man(a1-6)]Man(b1-4)GlcNAc(b1-4)[Fuc(a1-6)]GlcNAc
# Procedure, shortened: as §1
# [29] = biological target: Neu5Ac(a2-3)Gal(b1-4)GlcNAc(b1-2)Man(a1-3)[Neu5Ac(a2-6)Gal(b1-4)GlcNAc(b1-2)Man(a1-6)]Man(b1-4)GlcNAc(b1-4)GlcNAc
# Procedure, shortened: as §1
# [30] = biological target: Neu5Ac(a2-3)Gal(b1-4)GlcNAc(b1-2)[Neu5Ac(a2-3)Gal(b1-4)GlcNAc(b1-4)]Man(a1-3)[GlcNAc(b1-4)][Neu5Ac(a2-3)Gal(b1-4)GlcNAc(b1-2)[Neu5Ac(a2-3)Gal(b1-4)GlcNAc(b1-6)]Man(a1-6)]Man(b1-4)GlcNAc(b1-4)GlcNAc
# Procedure, shortened: as §1
# [31] = biological target: Neu5Ac(a2-3)Gal(b1-4)GlcNAc(b1-2)[Neu5Ac(a2-3)Gal(b1-4)GlcNAc(b1-4)]Man(a1-3)[GlcNAc(b1-4)][Neu5Ac(a2-3)Gal(b1-4)GlcNAc(b1-4)Man(a1-6)]Man(b1-4)GlcNAc(b1-4)GlcNAc
# Procedure, shortened: as §1
# [32] = biological target: Neu5Ac(a2-3)Gal(b1-4)GlcNAc(b1-2)[Neu5Ac(a2-3)Gal(b1-4)GlcNAc(b1-6)]Man(a1-6)[Neu5Ac(a2-3)Gal(b1-4)GlcNAc(b1-2)Man(a1-3)][GlcNAc(b1-4)]Man(b1-4)GlcNAc(b1-4)GlcNAc
# Procedure, shortened: as §1
# [33] = biological target: Neu5Ac(a2-3)Gal(b1-4)GlcNAc(b1-3)Gal
# Procedure, shortened: as §1
# [34] = biological target: Neu5Ac(a2-3)Gal(b1-4)GlcNAc(b1-3)Gal(b1-3)GlcNAc
# Procedure, shortened: as §1
# [35] = biological target: Neu5Ac(a2-3)Gal(b1-4)GlcNAc(b1-3)Gal(b1-4)GlcNAc
# Procedure, shortened: as §1
# [36] = biological target: Neu5Ac(a2-3)Gal(b1-4)GlcNAc(b1-3)Gal(b1-4)GlcNAc(b1-2)Man(a1-3)[Neu5Ac(a2-3)Gal(b1-4)GlcNAc(b1-3)Gal(b1-4)GlcNAc(b1-2)Man(a1-6)]Man(b1-4)GlcNAc(b1-4)GlcNAc
# Procedure, shortened: as §1
binder,measurement,setting,value
B1,glycan array binding signal (z-score),[1],-0.307
same,glycan array binding signal (z-score),[2],0.903
same,glycan array binding signal (z-score),[3],-0.337
same,glycan array binding signal (z-score),[4],-0.697
same,glycan array binding signal (z-score),[5],1.62
same,glycan array binding signal (z-score),[6],-0.685
same,glycan array binding signal (z-score),[7],-0.561
same,glycan array binding signal (z-score),[8],0.082
same,glycan array binding signal (z-score),[9],-0.658
same,glycan array binding signal (z-score),[10],0.1
same,glycan array binding signal (z-score),[11],-1.4
same,glycan array binding signal (z-score),[12],0.754
same,glycan array binding signal (z-score),[13],0.895
same,glycan array binding signal (z-score),[14],-1.01
same,glycan array binding signal (z-score),[15],1.42
same,glycan array binding signal (z-score),[16],0.457
same,glycan array binding signal (z-score),[17],-0.941
same,glycan array binding signal (z-score),[18],0.389
same,glycan array binding signal (z-score),[19],-0.064
same,glycan array binding signal (z-score),[20],1.58
same,glycan array binding signal (z-score),[21],0.695
same,glycan array binding signal (z-score),[22],0.598
same,glycan array binding signal (z-score),[23],-0.356
same,glycan array binding signal (z-score),Neu5Ac(a2-3)Gal(b1-4)Glc,7.38
same,glycan array binding signal (z-score),[24],-0.387
same,glycan array binding signal (z-score),[25],2.24
same,glycan array binding signal (z-score),[26],-0.613
same,glycan array binding signal (z-score),[27],-0.196
same,glycan array binding signal (z-score),[28],-0.663
same,glycan array binding signal (z-score),[29],-0.409
same,glycan array binding signal (z-score),[30],1.37
same,glycan array binding signal (z-score),[31],-0.302
same,glycan array binding signal (z-score),[32],-0.972
same,glycan array binding signal (z-score),[33],-1.15
same,glycan array binding signal (z-score),[34],-1.11
same,glycan array binding signal (z-score),[35],-0.032
same,glycan array binding signal (z-score),[36],-0.747

# Exported bar-delimited: entries from further up
binder | measurement | setting | value
B1 | glycan array binding signal (z-score) | [4] | -0.697
same | glycan array binding signal (z-score) | [35] | -0.032
same | glycan array binding signal (z-score) | [36] | -0.747
